Binding data for 2 substances are collected here from publication PMC11490702.

The chains behind the UniProt entries cited, without tags or fusion partners.
UniProt P63104: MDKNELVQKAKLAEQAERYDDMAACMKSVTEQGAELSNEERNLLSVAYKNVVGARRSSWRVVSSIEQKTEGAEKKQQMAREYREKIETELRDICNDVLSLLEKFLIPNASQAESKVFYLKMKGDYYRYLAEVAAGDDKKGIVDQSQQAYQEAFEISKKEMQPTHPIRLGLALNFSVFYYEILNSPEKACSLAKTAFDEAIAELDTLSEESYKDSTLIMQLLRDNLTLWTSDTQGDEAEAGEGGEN
UniProt P31946: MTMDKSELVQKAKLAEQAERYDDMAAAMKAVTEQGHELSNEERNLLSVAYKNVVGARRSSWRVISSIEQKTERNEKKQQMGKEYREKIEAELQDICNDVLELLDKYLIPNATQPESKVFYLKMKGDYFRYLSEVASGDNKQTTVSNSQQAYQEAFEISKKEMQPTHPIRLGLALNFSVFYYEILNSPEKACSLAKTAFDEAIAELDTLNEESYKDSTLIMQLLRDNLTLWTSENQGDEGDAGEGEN

Substitutions are numbered along the chain they refer to. No constants are given. Whether binding was seen depends on the method and setting. Binding seen in cells or lysates may run through a third protein. Some entries that bind do so weakly or less than the wild type. Tags and fused reporters may be left off the sequences shown.

The target of one assay is T1, Flag-OGT-S20A (UniProt O15294).
T1 sequence: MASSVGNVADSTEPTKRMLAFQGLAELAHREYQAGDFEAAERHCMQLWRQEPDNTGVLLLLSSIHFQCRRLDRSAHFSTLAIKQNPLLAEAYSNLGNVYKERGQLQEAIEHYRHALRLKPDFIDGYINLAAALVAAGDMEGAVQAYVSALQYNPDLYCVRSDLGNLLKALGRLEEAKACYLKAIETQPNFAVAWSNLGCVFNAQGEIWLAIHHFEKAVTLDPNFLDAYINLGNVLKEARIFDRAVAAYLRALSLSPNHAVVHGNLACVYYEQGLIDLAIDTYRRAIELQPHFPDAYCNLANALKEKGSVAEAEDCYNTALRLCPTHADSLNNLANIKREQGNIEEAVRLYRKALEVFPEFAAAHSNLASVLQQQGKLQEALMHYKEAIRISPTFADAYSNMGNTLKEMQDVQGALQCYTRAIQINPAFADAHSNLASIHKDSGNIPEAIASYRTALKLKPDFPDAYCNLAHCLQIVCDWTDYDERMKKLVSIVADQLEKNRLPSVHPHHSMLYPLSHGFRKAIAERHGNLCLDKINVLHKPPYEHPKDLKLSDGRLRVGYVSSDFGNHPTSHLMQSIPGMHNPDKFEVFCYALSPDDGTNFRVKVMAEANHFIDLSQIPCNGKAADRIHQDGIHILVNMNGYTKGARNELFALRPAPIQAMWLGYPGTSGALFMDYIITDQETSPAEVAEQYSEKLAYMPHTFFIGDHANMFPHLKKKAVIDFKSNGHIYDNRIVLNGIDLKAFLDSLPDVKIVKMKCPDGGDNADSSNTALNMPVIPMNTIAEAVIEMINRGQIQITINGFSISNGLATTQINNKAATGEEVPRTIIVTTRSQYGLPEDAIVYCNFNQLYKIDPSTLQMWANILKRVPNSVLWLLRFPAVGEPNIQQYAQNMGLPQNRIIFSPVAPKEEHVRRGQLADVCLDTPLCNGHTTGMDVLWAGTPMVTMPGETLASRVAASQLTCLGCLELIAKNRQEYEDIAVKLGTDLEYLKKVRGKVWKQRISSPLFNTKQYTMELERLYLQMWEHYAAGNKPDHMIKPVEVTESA
In words: co-IP; cells co-transfected with Flag-OGT (WT or S20A) and HA-14-3-3 isoforms; immunoprecipitated with anti-Flag.

The target in a further assay is T2, Flag-OGT-WT (UniProt O15294).
T2 sequence: T1 sequence with A20S
The description is as above.

With HA-14-3-3-ζ (from UniProt P63104 1-245), the binding result with Flag-OGT-S20A and with Flag-OGT-WT was “binds” each time.

In the case of HA-14-3-3-β (from UniProt P31946 1-246), the binding entry with Flag-OGT-S20A and in the assay with Flag-OGT-WT was “binds” in each case.
